Assay results published in the supplement of paper PMC10849652.
The other results are listed elsewhere or left out.

By UniProt entry, the sequences of proteins in these tests, tags left out. Where a name states a change or a piece, a line headed by the entry shows the natural chain unless it says otherwise.
UniProt Q96L91, whole entry, looked up: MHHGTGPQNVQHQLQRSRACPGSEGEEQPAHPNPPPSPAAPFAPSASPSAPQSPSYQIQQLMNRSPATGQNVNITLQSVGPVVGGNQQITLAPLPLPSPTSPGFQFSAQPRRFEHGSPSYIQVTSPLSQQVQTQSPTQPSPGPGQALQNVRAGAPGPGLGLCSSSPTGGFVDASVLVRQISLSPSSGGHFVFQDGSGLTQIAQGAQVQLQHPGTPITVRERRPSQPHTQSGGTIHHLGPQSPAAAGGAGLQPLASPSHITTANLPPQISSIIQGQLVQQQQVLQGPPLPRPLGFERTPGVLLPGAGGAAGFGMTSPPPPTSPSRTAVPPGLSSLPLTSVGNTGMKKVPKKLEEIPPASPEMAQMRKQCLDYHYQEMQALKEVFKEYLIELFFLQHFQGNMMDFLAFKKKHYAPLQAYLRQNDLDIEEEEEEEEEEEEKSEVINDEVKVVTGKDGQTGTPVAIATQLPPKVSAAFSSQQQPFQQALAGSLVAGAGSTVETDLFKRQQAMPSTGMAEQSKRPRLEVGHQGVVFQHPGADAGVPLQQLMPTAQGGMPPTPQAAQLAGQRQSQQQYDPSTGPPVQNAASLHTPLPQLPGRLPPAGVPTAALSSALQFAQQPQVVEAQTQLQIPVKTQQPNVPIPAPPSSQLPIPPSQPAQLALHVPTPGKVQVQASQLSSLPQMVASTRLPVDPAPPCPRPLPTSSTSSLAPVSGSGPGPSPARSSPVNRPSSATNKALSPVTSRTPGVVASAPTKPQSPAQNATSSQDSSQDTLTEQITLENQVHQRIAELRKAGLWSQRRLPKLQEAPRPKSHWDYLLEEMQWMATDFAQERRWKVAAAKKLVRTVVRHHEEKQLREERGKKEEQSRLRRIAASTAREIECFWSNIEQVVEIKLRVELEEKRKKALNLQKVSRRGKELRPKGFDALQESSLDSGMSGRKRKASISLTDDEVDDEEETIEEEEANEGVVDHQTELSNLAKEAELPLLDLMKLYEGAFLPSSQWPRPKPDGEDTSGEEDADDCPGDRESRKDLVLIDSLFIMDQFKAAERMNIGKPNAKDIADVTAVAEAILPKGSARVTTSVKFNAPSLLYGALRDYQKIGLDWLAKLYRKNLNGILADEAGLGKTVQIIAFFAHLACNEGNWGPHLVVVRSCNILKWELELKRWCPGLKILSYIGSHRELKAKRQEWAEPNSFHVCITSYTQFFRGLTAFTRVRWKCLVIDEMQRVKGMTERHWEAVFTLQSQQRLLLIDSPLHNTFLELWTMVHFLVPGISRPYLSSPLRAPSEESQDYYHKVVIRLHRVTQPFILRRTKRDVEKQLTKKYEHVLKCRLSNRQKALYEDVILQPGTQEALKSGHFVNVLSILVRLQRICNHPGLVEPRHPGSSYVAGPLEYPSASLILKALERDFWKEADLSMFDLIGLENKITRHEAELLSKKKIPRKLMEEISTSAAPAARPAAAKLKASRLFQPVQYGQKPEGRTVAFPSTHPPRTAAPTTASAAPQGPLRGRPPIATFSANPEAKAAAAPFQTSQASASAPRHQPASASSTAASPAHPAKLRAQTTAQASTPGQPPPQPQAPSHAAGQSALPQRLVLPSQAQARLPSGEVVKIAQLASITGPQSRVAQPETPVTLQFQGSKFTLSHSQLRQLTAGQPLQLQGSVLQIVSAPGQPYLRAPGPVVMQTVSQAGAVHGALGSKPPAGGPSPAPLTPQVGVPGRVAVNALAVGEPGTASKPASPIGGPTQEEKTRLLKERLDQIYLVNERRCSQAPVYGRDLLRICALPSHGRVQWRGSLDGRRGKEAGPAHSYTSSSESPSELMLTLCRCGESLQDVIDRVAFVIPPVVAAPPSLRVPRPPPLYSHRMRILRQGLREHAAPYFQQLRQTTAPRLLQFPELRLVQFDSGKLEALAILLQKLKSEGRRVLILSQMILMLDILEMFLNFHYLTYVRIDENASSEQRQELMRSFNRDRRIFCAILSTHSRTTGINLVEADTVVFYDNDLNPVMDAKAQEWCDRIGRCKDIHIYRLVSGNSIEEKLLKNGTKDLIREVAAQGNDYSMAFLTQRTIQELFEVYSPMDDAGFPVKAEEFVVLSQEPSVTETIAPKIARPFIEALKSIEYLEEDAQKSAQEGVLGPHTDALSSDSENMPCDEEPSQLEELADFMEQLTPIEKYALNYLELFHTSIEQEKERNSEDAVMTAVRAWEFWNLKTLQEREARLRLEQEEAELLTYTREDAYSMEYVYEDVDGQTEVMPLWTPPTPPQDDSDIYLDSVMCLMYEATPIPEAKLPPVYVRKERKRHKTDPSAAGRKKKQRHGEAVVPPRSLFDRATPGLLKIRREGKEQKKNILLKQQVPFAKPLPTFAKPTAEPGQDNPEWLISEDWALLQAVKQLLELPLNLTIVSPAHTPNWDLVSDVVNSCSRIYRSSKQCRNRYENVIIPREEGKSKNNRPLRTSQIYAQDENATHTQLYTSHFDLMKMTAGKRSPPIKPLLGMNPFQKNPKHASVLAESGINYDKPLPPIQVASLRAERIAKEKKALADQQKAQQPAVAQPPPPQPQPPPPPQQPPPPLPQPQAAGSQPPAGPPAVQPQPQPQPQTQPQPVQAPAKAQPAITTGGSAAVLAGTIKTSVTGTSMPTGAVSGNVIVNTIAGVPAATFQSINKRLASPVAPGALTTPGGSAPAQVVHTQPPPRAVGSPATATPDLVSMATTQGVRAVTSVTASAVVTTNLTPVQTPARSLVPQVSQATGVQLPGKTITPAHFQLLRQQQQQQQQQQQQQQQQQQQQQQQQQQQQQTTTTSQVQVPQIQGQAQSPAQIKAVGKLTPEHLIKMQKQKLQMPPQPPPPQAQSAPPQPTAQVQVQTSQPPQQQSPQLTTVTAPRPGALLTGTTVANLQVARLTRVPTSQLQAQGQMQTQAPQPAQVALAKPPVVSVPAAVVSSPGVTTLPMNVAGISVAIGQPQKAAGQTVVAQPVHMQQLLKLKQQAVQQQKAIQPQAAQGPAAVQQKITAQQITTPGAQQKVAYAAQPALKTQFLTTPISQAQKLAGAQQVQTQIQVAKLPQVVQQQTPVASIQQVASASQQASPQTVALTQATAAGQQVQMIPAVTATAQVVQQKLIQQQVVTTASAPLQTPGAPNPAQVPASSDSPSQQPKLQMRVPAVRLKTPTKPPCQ
UniProt Q6IA86: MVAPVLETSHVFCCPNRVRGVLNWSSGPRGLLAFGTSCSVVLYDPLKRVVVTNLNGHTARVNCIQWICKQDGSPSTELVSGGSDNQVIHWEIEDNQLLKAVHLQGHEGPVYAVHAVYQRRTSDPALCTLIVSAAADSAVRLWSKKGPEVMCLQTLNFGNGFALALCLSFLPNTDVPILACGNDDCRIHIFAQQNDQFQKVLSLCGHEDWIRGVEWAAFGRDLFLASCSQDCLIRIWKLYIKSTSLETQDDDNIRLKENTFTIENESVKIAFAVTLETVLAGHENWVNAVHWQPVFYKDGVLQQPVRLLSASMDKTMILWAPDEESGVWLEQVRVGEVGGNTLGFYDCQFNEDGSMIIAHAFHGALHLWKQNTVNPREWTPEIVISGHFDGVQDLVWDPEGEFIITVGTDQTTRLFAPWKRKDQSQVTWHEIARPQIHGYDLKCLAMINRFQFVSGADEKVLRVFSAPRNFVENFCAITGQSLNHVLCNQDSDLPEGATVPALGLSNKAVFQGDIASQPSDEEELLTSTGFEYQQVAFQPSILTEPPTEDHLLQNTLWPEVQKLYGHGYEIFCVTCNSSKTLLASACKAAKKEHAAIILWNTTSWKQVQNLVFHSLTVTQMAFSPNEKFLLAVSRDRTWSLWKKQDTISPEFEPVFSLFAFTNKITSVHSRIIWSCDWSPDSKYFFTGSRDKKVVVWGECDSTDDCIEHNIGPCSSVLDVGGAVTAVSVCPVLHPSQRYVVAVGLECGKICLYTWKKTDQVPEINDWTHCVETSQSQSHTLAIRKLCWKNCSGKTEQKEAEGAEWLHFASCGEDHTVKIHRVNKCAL
UniProt P55010, whole entry, looked up: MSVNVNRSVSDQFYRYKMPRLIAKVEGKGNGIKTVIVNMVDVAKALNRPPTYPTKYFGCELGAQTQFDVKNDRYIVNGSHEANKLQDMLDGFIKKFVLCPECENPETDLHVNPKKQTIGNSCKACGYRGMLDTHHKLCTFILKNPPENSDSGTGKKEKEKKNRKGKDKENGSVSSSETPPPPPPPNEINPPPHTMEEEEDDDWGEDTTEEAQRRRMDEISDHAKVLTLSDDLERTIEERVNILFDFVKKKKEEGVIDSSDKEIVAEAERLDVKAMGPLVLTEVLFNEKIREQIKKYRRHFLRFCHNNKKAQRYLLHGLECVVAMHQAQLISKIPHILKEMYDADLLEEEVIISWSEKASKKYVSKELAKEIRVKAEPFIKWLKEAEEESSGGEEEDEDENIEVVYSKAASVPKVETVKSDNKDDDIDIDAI
UniProt Q8NFI3: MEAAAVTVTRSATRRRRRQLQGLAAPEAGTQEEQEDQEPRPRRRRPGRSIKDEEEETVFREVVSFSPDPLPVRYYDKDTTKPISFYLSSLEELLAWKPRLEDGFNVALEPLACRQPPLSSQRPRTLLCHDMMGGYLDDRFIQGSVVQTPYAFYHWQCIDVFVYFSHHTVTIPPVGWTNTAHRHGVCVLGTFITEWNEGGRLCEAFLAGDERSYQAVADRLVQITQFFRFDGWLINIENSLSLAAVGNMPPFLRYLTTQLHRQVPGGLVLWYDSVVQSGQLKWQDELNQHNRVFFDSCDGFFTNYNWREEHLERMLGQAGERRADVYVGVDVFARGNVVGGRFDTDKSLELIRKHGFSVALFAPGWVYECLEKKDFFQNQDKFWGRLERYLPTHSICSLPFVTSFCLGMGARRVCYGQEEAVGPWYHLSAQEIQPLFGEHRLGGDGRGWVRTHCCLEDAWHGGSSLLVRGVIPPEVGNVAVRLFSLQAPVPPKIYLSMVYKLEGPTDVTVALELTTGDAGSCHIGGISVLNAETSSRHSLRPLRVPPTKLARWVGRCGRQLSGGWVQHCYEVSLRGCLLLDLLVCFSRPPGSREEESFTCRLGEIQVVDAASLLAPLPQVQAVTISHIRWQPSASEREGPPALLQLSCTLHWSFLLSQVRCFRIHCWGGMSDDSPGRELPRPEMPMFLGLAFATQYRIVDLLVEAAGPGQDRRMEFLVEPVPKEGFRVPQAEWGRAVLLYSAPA
UniProt P05198, whole entry, looked up: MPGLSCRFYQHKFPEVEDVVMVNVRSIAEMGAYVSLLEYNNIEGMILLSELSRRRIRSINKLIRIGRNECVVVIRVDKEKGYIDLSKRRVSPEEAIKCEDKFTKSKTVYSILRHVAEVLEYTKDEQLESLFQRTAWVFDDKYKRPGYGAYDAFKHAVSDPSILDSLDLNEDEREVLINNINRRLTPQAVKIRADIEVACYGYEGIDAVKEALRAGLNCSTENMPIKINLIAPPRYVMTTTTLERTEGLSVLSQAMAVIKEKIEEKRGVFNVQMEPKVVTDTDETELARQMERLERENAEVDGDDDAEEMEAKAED
UniProt Q9UHY7: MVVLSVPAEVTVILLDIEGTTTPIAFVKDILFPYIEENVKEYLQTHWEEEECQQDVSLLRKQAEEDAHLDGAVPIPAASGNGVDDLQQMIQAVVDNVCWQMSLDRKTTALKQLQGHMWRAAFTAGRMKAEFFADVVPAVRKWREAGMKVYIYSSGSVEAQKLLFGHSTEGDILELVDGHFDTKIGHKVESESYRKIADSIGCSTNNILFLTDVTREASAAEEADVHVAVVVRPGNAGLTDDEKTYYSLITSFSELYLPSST
UniProt P16422: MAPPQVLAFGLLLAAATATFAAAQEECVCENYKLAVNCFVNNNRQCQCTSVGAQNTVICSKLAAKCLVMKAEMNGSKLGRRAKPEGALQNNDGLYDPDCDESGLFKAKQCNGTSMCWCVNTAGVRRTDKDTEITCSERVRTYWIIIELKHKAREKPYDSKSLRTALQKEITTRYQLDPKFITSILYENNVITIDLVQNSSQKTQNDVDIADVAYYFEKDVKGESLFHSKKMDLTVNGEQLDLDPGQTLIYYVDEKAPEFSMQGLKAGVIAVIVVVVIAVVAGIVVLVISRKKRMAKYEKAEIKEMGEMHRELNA
UniProt Q5J8M3, whole entry, looked up: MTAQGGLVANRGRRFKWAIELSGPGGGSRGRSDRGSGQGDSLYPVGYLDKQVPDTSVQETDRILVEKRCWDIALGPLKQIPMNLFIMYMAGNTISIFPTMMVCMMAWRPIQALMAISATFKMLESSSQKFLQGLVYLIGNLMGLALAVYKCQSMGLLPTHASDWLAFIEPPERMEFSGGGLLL
UniProt Q14232, whole entry, looked up: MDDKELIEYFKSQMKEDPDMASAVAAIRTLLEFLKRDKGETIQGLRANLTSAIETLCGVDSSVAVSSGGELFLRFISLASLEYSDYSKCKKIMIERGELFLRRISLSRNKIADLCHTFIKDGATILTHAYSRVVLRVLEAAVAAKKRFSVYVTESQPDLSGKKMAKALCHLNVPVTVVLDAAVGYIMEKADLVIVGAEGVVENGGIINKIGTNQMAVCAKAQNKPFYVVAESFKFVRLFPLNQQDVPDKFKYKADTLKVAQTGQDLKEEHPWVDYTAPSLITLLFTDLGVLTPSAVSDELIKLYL

Assays:
Assay in all cases: log2 fold change, soluble protein after heating vs DMSO (PISA); higher = thermal stabilisation; K562 lysate, 10 uM; active = over 0.2 and 3.5 SD of the protein, either way, in both replicates (recomputed)
[1] = compound: C#Cc1cccc(Nc2ncnc3cc(OCCOC)c(OCCOC)cc23)c1 [erlotinib]
How it was run: (§1)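 Soluble protein was defined as the supernatant remaining after 21,000xg for 90 min, following pooling of heated aliquots and adjustment to 0.5% NP-40 at 4°C. Before that, crude K562 extract at 1 mg/mL protein in PBS pH 7.4 with 1 mM MgCl2 was treated with 10 μM compound for 30 min and heated for 3 min across 48°C-58°C. Quantification used TMTpro 16plex LC-MS/MS with channel sums equalised, and values are log-two fold changes in thermal stability relative to solvent controls from duplicates.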

[2] = compound: C/C(=N\NC(=O)C1=CC(=CC=C1)S(=O)(=O)N2CCOCC2)/C3=C(C=CC(=C3)Cl)O
How it was run: as §1

[3] = compound: C1=CC(=CC=C1C2=NC3=C(N2)C=C(C=C3)C(=O)N)OC4=CC=C(C=C4)Cl
How it was run: as §1

[4] = compound: C1=CC2=C(C=CC(=C2)/C=C\3/C(=O)NC(=NCC4=CC=CS4)S3)N=C1
How it was run: as §1

[5] = compound: C1=CC2=NC=CN=C2C=C1/C=C/3\C(=O)NC(=O)S3
How it was run: as §1

[6] = compound: C1=CC=C(C=C1)C2=NC(=C(N2)C3=CC=NC=C3)C4=CC(=C(C=C4)Cl)O
How it was run: as §1

[7] = compound: C1=CC=C2C(=C1)C3=NNC4=CC=CC(=C43)C2=O
How it was run: as §1

[8] = compound: C1CCN(C1)C(=O)NC2=CC=CC(=C2)NC3=NC=C(C(=N3)NCCC4=CN=CN4)Br
How it was run: as §1

[9] = compound: C1CN(CCC1(CC2=CC=C(C=C2)Cl)N)C3=NC=NC4=C3C=CN4
How it was run: as §1

[10] = compound: C1COCCN1CCN2C3=CC=CC=C3N=C2NC(=O)C4=CC(=CC=C4)[N+](=O)[O-] [IRAK-1-4 Inhibitor I]
How it was run: as §1

[11] = compound: C=CC(=O)N1CCC[C@@H](n2nc(-c3ccc(Oc4ccccc4)cc3)c3c(N)ncnc32)C1 [ibrutinib]
How it was run: as §1

[12] = compound: CC(=O)c1cnc2ccc(-c3cc(Cl)c(O)c(Cl)c3)nc2c1N[C@H]1CC[C@H](CN(C)C)CC1
How it was run: as §1

[13] = compound: CC(C)(C)Cn1c(N)nc2ccc(-c3[nH]c(C(C)(C)C)nc3-c3ccc(F)cc3)nc21 [ralimetinib]
How it was run: as §1

[14] = compound: CC(C)(O)CC(=O)NCCn1ccc2ncnc(Nc3ccc(Oc4cccc(C(F)(F)F)c4)c(Cl)c3)c21
How it was run: as §1

[15] = compound: CC(C)C1=C2N=C(C=C(N2N=C1)NCC3=CC=CC=C3)NCCCCCCN
How it was run: as §1

[16] = compound: CC1=C(C(CC(=O)N1)C2=CC=C(C=C2)C(F)(F)F)C(=O)NC3=C(C=C4C(=C3)C=NN4)F
How it was run: as §1

[17] = compound: CC1=C(C2=C(C=C1)C(=O)C3=CC=CC=C3N2CCCN)C
How it was run: as §1

[18] = compound: CC1=C(C=C(C=C1)NC(=O)C2=CC(=CC=C2)C(C)(C)C#N)NC3=CC4=C(C=C3)N=CN(C4=O)C
How it was run: as §1

[19] = compound: CC1=C(C=C(C=C1)NC(=O)C2=CC(=CC=C2)N(C)C)NC(=O)C3=CC=C(C=C3)O
How it was run: as §1

[20] = compound: CC1=CC=C(C=C1)SC2=C3C=C(SC3=CN=C2)C(=O)N
How it was run: as §1

Measured: log2 fold change

EP400 isoform 5 (UniProt Q96L91)
inactive: [1] 0.045 | [2] 0.01 | [3] -0.007 | [4] -0.023 | [5] -0.042 | [6] -0.003 | [7] -0.074 | [8] -0.027 | [9] -0.023 | [10] -0.005 | [11] -0.061 | [12] -0.018 | [13] 0.02 | [14] -0.033 | [15] -0.027 | [16] 0.047 | [17] -0.014 | [18] 0.016 | [19] 0.035 | [20] 0.041

ELP2 isoform 6 (UniProt Q6IA86)
inactive: [1] 0.013 | [2] 0.008 | [3] 0.004 | [4] 0.002 | [5] -0.007 | [6] 0.004 | [7] -0.008 | [8] -0.01 | [9] -0.008 | [10] 0.017 | [11] 0.015 | [12] 0.006 | [13] 0.019 | [14] 0 | [15] -0.028 | [16] -0.005 | [17] -0.016 | [18] 0.005 | [19] -0.012 | [20] 0.007

EIF2S3 (UniProt P41091)
inactive: [1] 0.003 | [2] 0.031 | [3] -0.002 | [4] -0.042 | [5] -0.012 | [6] 0.005 | [7] 0.027 | [8] -0.002 | [9] 0.032 | [10] -0.004 | [11] -0.013 | [12] -0.027 | [13] -0.006 | [14] -0.003 | [15] -0.001 | [16] -0.015 | [17] -0.009 | [18] -0.024 | [19] -0.018 | [20] 0.01

Two entries drawn at random from the list so far:
EP400 isoform 5 (UniProt Q96L91)
inactive: [1] 0.045 | [2] 0.01 | [3] -0.007 | [4] -0.023 | [5] -0.042 | [6] -0.003 | [7] -0.074 | [8] -0.027 | [9] -0.023 | [10] -0.005 | [11] -0.061 | [12] -0.018 | [13] 0.02 | [14] -0.033 | [15] -0.027 | [16] 0.047 | [17] -0.014 | [18] 0.016 | [19] 0.035 | [20] 0.041

EIF2S3 (UniProt P41091)
inactive: [1] 0.003 | [2] 0.031 | [3] -0.002 | [4] -0.042 | [5] -0.012 | [6] 0.005 | [7] 0.027 | [8] -0.002 | [9] 0.032 | [10] -0.004 | [11] -0.013 | [12] -0.027 | [13] -0.006 | [14] -0.003 | [15] -0.001 | [16] -0.015 | [17] -0.009 | [18] -0.024 | [19] -0.018 | [20] 0.01

The listing continues:

EIF5 (UniProt P55010)
inactive: [1] -0.002 | [2] -0.029 | [3] -0.003 | [4] -0.033 | [5] 0.01 | [6] -0.014 | [7] 0.026 | [8] 0.011 | [9] -0.012 | [10] 0.004 | [11] 0.002 | [12] 0.002 | [13] 0.015 | [14] 0.003 | [15] -0.016 | [16] -0.027 | [17] 0.02 | [18] 0.011 | [19] -0.01 | [20] 0.007

EIF6 (UniProt P56537)
inactive: [1] -0.006 | [2] -0.054 | [3] 0.033 | [4] -0.031 | [5] -0.053 | [6] -0.001 | [7] -0.029 | [8] -0.045 | [9] -0.006 | [10] 0.036 | [11] -0.032 | [12] -0.045 | [13] 0.034 | [14] -0.042 | [15] 0.03 | [16] -0.059 | [17] 0.028 | [18] 0.043 | [19] 0.01 | [20] -0.006

ENGASE (UniProt Q8NFI3)
inactive: [1] 0.036 | [2] 0 | [3] 0.043 | [4] -0.069 | [5] 0.008 | [6] 0.002 | [7] -0.04 | [8] 0.009 | [9] 0.043 | [10] 0.007 | [11] 0.019 | [12] 0.019 | [13] -0.02 | [14] 0.012 | [15] -0.02 | [16] -0.002 | [17] 0.012 | [18] -0.046 | [19] 0.067 | [20] 0

EIF2S1 (UniProt P05198)
inactive: [1] -0.013 | [2] 0.031 | [3] -0.01 | [4] -0.02 | [5] -0.025 | [6] 0.019 | [7] -0.002 | [8] -0.017 | [9] 0.019 | [10] -0.001 | [11] -0.029 | [12] -0.006 | [13] -0.012 | [14] -0.021 | [15] -0.004 | [16] -0.028 | [17] 0.004 | [18] 0.017 | [19] -0.004 | [20] 0.01

EIF4G2 (UniProt P78344)
inactive: [1] 0.018 | [2] 0.046 | [3] -0.002 | [4] 0.022 | [5] 0.019 | [6] -0.047 | [7] 0.025 | [8] -0.025 | [9] -0.012 | [10] 0.011 | [11] 0.005 | [12] 0.04 | [13] -0.003 | [14] -0.011 | [15] -0.031 | [16] 0.018 | [17] 0.094 | [18] -0.004 | [19] 0.014 | [20] 0.006

ELOC (UniProt Q15369)
inactive: [1] 0.025 | [2] 0.065 | [3] -0.02 | [4] 0.016 | [5] -0.033 | [6] -0.002 | [7] -0.008 | [8] 0.005 | [9] 0.036 | [10] 0.004 | [11] 0.06 | [12] -0.024 | [13] 0.027 | [14] -0.05 | [15] 0.013 | [16] -0.07 | [17] 0.007 | [18] 0.068 | [19] -0.067 | [20] 0.05

EIF3L (UniProt Q9Y262)
inactive: [1] -0.01 | [2] 0.055 | [3] -0.01 | [4] -0.019 | [5] 0.003 | [6] -0.007 | [7] -0.001 | [8] -0.022 | [9] 0.003 | [10] 0.005 | [11] -0.031 | [12] -0.015 | [13] 0.015 | [14] 0.01 | [15] -0.016 | [16] -0.039 | [17] 0.007 | [18] 0 | [19] 0.009 | [20] -0.006

ERCC1 (UniProt P07992)
inactive: [1] 0.043 | [2] -0.155 | [3] -0.02 | [4] -0.087 | [5] 0.009 | [6] -0.031 | [7] -0.126 | [8] 0.06 | [9] 0.01 | [10] 0.013 | [11] -0.012 | [12] 0.039 | [13] 0.013 | [14] -0.007 | [15] 0.006 | [16] 0.008 | [17] 0.012 | [18] -0.04 | [19] 0.001 | [20] 0.002

ENOPH1 (UniProt Q9UHY7)
inactive: [1] 0.009 | [2] -0.086 | [3] -0.016 | [4] 0.029 | [5] 0.006 | [6] 0.062 | [7] 0.044 | [8] -0.005 | [9] 0.048 | [10] 0.009 | [11] -0.021 | [12] 0.04 | [13] -0.008 | [14] -0.058 | [15] 0.019 | [16] -0.016 | [17] 0.046 | [18] -0.008 | [19] -0.02 | [20] 0.035

EPCAM (UniProt P16422)
inactive: [1] 0.042 | [2] 0.018 | [3] 0.007 | [4] -0.04 | [5] 0 | [6] -0.029 | [7] 0.047 | [8] 0.002 | [9] -0.032 | [10] 0.019 | [11] -0.006 | [12] 0.031 | [13] -0.007 | [14] -0.052 | [15] -0.115 | [16] -0.013 | [17] -0.104 | [18] 0.027 | [19] -0.102 | [20] -0.041

EMC4 (UniProt Q5J8M3)
inactive: [1] 0.013 | [2] -0.031 | [3] 0.058 | [4] 0.031 | [5] -0.053 | [6] -0.076 | [7] -0.048 | [8] -0.03 | [9] 0 | [10] -0.051 | [11] 0.034 | [12] -0.036 | [13] -0.015 | [14] 0.007 | [15] -0.029 | [16] 0.019 | [17] -0.005 | [18] 0 | [19] 0.052 | [20] 0.021

EIF2B1 (UniProt Q14232)
inactive: [1] 0.011 | [2] 0.007 | [3] -0.005 | [4] 0.007 | [5] 0.024 | [6] 0.007 | [7] 0.012 | [8] 0.028 | [9] -0.001 | [10] -0.006 | [11] 0 | [12] 0.014 | [13] -0.002 | [14] -0.006 | [15] -0.013 | [16] -0.011 | [17] 0.015 | [18] -0.002 | [19] -0.005 | [20] 0.001

EMC2 (UniProt Q15006)
inactive: [1] -0.022 | [2] -0.065 | [3] 0.003 | [4] 0.042 | [5] 0.032 | [6] -0.015 | [7] -0.051 | [8] -0.044 | [9] 0.043 | [10] -0.009 | [11] -0.024 | [12] -0.003 | [13] 0.032 | [14] -0.032 | [15] -0.08 | [16] 0.012 | [17] 0.012 | [18] -0.024 | [19] 0.018 | [20] -0.02
